Reference: the supplement of paper PMC5407854, “Inhibitor of ppGalNAc-T3-mediated O-glycosylation blocks cancer cell invasiveness and lowers FGF23 levels” (eLife, 2017)
This is one part of the list. Most values lie at the level of the controls, where differences are scatter.

What was measured:
[1] = system: ppGalNAc-T3 sensor; assay: T3 sensor activation Q score (MG/GFP ratio z-score vs DMSO controls) (SD units); higher = more sensor activation (inhibition of ppGalNAc-T3 glycosylation); settings: HEK293 sensor cells; 10 µM; 6 h
Protocol: (§1)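 Cells were treated with compound at 10 uM for 6 h, then MG/GFP ratio was read by flow cytometry (10,000 cells per well, duplicate wells). Q = (R - R_neg)/SD_neg relative to DMSO vehicle controls; the signal rises when the glycosyltransferase is inhibited.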

[2] = system: ppGalNAc-T2 sensor; assay: T2 sensor activation Q score (MG/GFP ratio z-score vs DMSO controls) (SD units); higher = more sensor activation (inhibition of ppGalNAc-T2 glycosylation); settings: HEK293 sensor cells; 10 µM; 6 h
Protocol: as §1

| SMILES | T3 sensor activation Q score [1] | T2 sensor activation Q score [2] |
| --- | --- | --- |
| COc1cccc(CN2CCc3ccccc3C2)c1 | -0.465 | 0.17 |
| O=C(c1c(F)c(F)c(F)c(F)c1F)N1CCCCCC1 | 0.325 | 0.43 |
| COc1ccc(CNN)c(OC)c1 | 0.8 | -0.19 |
| CCc1cc(-c2n[nH]c(C)c2-c2ccccc2)c(O)cc1O | 0.01 | -0.365 |
| CC(C)Cc1ccc(-c2csc(N)n2)cc1 | -0.195 | 0.135 |
| CCN(CCN(C)C)Cc1cccc(F)c1 | 0.725 | 1.04 |
| COc1ccc(N2C(=O)C(O)=C(C(C)=O)C2c2ccccc2)cc1 (stereo not given) | 0.065 | 0.305 |
| CC(C)(C)NC(=O)c1ccccc1C(=O)NC(C)(C)C | -0.165 | -0.635 |
| COc1ccc(CN2CCN(c3ccccc3)CC2)c(OC)c1OC | 1.22 | -0.485 |
| CC(=O)N1CCN(c2ccc([N+](=O)[O-])cc2F)CC1 | 0.645 | 0.005 |
| c1ccc(OCCCN2CCCCC2)cc1 | -0.215 | -0.295 |
| OC1CSc2nc3ccccc3n2C1 (stereo not given) | 0.405 | -0.9 |
| COc1cc(C)c(CN2CCCN(C)CC2)cc1C | -0.025 | -0.56 |
| Fc1cccc(F)c1CN1CCN(C/C=C/c2ccccc2)CC1 | 0.14 | 0.025 |
| O=C(c1ccccc1)N1CCOCC1 | -0.39 | -0.62 |
| COc1cc2nc(C)sc2cc1OC | 0.725 | -0.345 |
| Clc1ccc(N2CCN(Cc3ccsc3)CC2)cc1 | 0.76 | -0.455 |
| Cc1nc2ccccc2n1C(=O)N(C)C | -0.04 | -0.38 |
| O=C(O)c1ccc(-n2cnnn2)cc1 | 0.55 | 0.005 |
| Cc1ccc(Cn2cnc3ccccc32)cc1 | -0.22 | 0.545 |

Taken from above:
CC(=O)N1CCN(c2ccc([N+](=O)[O-])cc2F)CC1 – T2 sensor activation Q score [2]: 0.005
O=C(c1c(F)c(F)c(F)c(F)c1F)N1CCCCCC1 – T3 sensor activation Q score [1]: 0.325

Next part.

| SMILES | T3 sensor activation Q score [1] | T2 sensor activation Q score [2] |
| --- | --- | --- |
| CC1CCN(S(=O)(=O)c2ccc(Br)c(C(=O)O)c2)CC1 | 0.44 | -0.685 |
| CN(C(=O)CCC(=O)O)c1ccccc1C(=O)O | -0.435 | 0.52 |
| COc1cc(OC)cc(C(=O)NCCC2=CCCCC2)c1 | -0.285 | 0.84 |
| O=C(O)CCC(=O)Nc1ccc(Br)c(Cl)c1 | -0.045 | -0.025 |
| c1ccc(-c2ccccc2OCCn2ccnc2)cc1 | -0.84 | 0.365 |
| CC(NCCC(=O)O)c1ccccc1 (stereo not given) | -0.975 | -1.75 |
| Cc1cc(C)c(S(=O)(=O)N2CCCC2=O)c(C)c1 | -0.435 | 0.26 |
| CN1CCN(S(=O)(=O)c2cc(Cl)c(Cl)cc2Cl)CC1 | -0.435 | 0.385 |
| Cc1ccc(C)c2c(N)c3c(nc12)CCCCC3 | 0.2 | -1.16 |
| O=C(Nc1ccc(-c2ccccc2)cc1)C1CC1c1ccccc1 (stereo not given) | -0.55 | 0.375 |
| C=CCSc1nc(O)cc(=O)n1C | 0.43 | 1.72 |
| CCOC(=O)N1CCN(Cc2ccc(F)cc2)CC1 | 0.545 | 0.735 |
| COc1ccc(C2C(=C(O)c3ccccc3)C(=O)C(=O)N2C)cc1OC (stereo not given) | -0.555 | 0.885 |
| Cc1cc(OCC(=O)NN)ccc1Cl | -0.335 | 1.33 |
| CC(=O)Nc1ccc(NC(=O)c2ccccc2Br)cc1 | -0.105 | -0.18 |
| CC(=O)Nc1ccc(NC(=O)COc2cccc(C)c2)cc1 | -0.54 | 1.78 |
| Cc1ccc(OCCCN2CCOCC2)cc1C | 0.29 | 0.64 |
| COc1ccccc1CNC(=O)Cc1ccc(OC)c(OC)c1 | 0.335 | -0.705 |
| CC(C)c1ccc(NC(=O)c2cnccn2)cc1 | 0.545 | -0.06 |
| Cc1cc(C)c(C(=O)c2ccc(C(=O)N3CCOCC3)cc2)c(C)c1 | -0.355 | -0.115 |

| SMILES | T3 sensor activation Q score [1] | T2 sensor activation Q score [2] |
| --- | --- | --- |
| CCOc1ccccc1N1CCN(Cc2cc(Br)ccc2OC)CC1 | -0.08 | 0.15 |
| NC(=O)c1ccc(NC(=O)Nc2ccc(Cl)cc2)cc1 | -0.14 | -1.75 |
| Cc1ccc(NC(=O)C2CCC(C)(C(=O)O)C2(C)C)cc1 (stereo not given) | -1.5 | -1.81 |
| CC(C)c1ccc(CN(C)C2CCN(C)CC2)cc1 | 1.5 | -1.26 |
| O=S(=O)(Nc1cccc(F)c1)c1ccc(-c2ccccc2)cc1 | 0.475 | 0.565 |
| CCOc1cc(CN2CCCN(C)CC2)ccc1OC | 0.07 | -0.125 |
| COc1ccccc1C(=O)Nc1cccc(Cl)c1C | -0.56 | -0.705 |
| CCCCc1ccc(-c2csc(N)c2C(N)=O)cc1 | 1.39 | -0.56 |
| COc1cccc(NC(=O)C(c2ccccc2)c2ccccc2)c1 | 0.385 | -0.635 |
| CCOc1cccc(N2C(=O)CC(N3CCN(CC)CC3)C2=O)c1 (stereo not given) | 0.645 | -0.18 |
| CC(Cc1c[nH]c2ccccc12)NC(N)=O (stereo not given) | 0.1 | -1.04 |
| CCCc1cc2ccccc2o1 | 0.1 | -0.49 |
| CC1CN(CC(O)COc2ccccc2C(C)(C)C)CC(C)O1 (stereo not given) | -0.12 | -0.76 |
| COc1ccc(CC2=C(O)c3ccccc3C(=O)C2=O)cc1 | 1.6 | -0.925 |
| CCN(CC)C(=O)C1CCCN(Cc2cc(Br)ccc2OC)C1 (stereo not given) | 0.215 | 1.52 |
| c1ccc2c(Cn3ccnc3)c[nH]c2c1 | 0.9 | 0.965 |
| CCCN(CCO)Cc1ccc(Cl)cc1Cl | 0.195 | 0.575 |
| Cc1ccc(-c2ccccc2N)o1 | -0.07 | 0.69 |
| O=C(O)c1ccc(S(=O)(=O)N2CCCC2)cc1 | 0.9 | -0.335 |
| Fc1ccccc1CN1CCOCC1 | 0.825 | 0.11 |
